Experimental data taken from the supplement of paper PMC12067093, “Discovery and optimisation of a covalent ligand for TRIM25 and its application to targeted protein ubiquitination” (Chemical Science, 2025).
The other results are listed elsewhere or left out.

Compound: Cc1cc(ccc1-c1ccccc1)C(=O)N1CCCN(CC1)C(=O)CCl [compound 10]
Assay: probe-labelled cysteine peptide fold change vs DMSO (competition) (log2 fold change); higher = less target engagement (more negative = stronger competition)
Settings: THP-1, incubation time: 4 h
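Also: competitive profiling in live THP-1 cells: cysteine peptides tagged with an iodoacetamide desthiobiotin (IA-DTB) probe, intensity after compound treatment relative to DMSO-treated cells.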

Target	probe-labelled cysteine peptide fold change (10 µM)	probe-labelled cysteine peptide fold change (50 µM)
INVS_Q9Y283_702_GQSACVHFRPNEGSDGSR (UniProt Q9Y283)	0.0228	-0.16
INTS13_Q9NVM9_406_SILEDPPSISEGCGGR (UniProt Q9NVM9)	-0.197	0.0765
ITGB2_P05107_445_ALGFTDIVTVQVLPQCECR (UniProt P05107)	0.0381	0.0559
INSR_P06213_196_TNCPATVINGQFVER (UniProt P06213)	-0.0772	-0.103
IPO5_O00410_560_TIECISLIGLAVGK (UniProt O00410)	0.166	0.131
IQGAP1_P46940_660_SPDVGLYGVIPECGETYHSDLAEAK (UniProt P46940)	-0.194	0.116
INTS1_Q8N201_611_DYVHCLHK (UniProt Q8N201)	0.209	0.134
INSR_P06213_462_LCLSEIHK (UniProt P06213)	-0.0622	0.0658
IPO7_O95373_477_ACWVLHYFCEVK (UniProt O95373)	-0.562	0.827
INTS5_Q6P9B9_245_VLSCGLK (UniProt Q6P9B9)	-0.277	-0.364
ITGB1_P05556_691_DKLPQPVQPDPVSHCK (UniProt P05556)	-0.108	-0.288
ISY1_Q9ULR0_36_RPFLASECTELPK (UniProt Q9ULR0)	0.119	0.176
IPO7_O95373_90_ETAPGDISPYTIPEEDRHCIR (UniProt O95373)	-0.107	-0.00395
IRAK3_Q9Y616_399_RGLDSCLSFLDK (UniProt Q9Y616)	0.0279	-0.0603
IRF2BP1_Q8IU81_207_NADCLAELNEAMR (UniProt Q8IU81)	-0.315	-0.534
INTS3_Q68E01_866_PCHPDDQFTTSILR (UniProt Q68E01)	-0.261	0.0472
ITGB1_P05556_574_SNGLICGGNGVCK (UniProt P05556)	-0.173	-0.184
INTS3_Q68E01_498_EKFPEFCSSPSPPVEVK (UniProt Q68E01)	0.0707	-0.359
ISG20L2_Q9H9L3_295_KADCPENATMSLK (UniProt Q9H9L3)	0.0343	-0.0204

Target	probe-labelled cysteine peptide fold change (10 µM)	probe-labelled cysteine peptide fold change (50 µM)
IQSEC1_Q6DN90_260_SLAESIDDALNCR (UniProt Q6DN90)	-0.00351	-0.331
ISG15_P05161_78_LAVHPSGVALQDRVPLASQGLGPGSTVLLVVDKCDEPLSILVR (UniProt P05161)	-0.05	-0.542
IQSEC1_Q6DN90_359_ADTDTSCR (UniProt Q6DN90)	-0.182	-0.375
INTS3_Q68E01_866_MVLSRPCHPDDQFTTSILR (UniProt Q68E01)	-0.0901	0.0639
ITGA4_P13612_861_VCALEQQK (UniProt P13612)	-0.177	0.247
IRF8_Q02556_223_LVGQATTTCPEGCR (UniProt Q02556)	0.189	0.153
IQGAP3_Q86VI3_646_GVVPDCANGYQR (UniProt Q86VI3)	-0.0746	-0.0296
INTS9_Q9NV88_14_LYCLSGHPTLPCNVLK (UniProt Q9NV88)	0.0888	0.164
IRF2BP2_Q7Z5L9_506_EVGGQGAGNTGGLEPVHPASLPDSSLATSAPLCCTLCHER (UniProt Q7Z5L9)	0.164	0.216
ISL2_Q96A47_30_KKPGTAMCVGCGSQIHDQFILR (UniProt Q96A47)	-0.0089	-0.186
ISCU_Q9H1K1_130_ELCLPPVK (UniProt Q9H1K1)	-0.247	-0.408
IRF2BP2_Q7Z5L9_16_QSCYLCDLPR (UniProt Q7Z5L9)	0.118	-0.249
IPO4_Q8TEX9_95_ETEHCVSLSLAQLSATIFRK (UniProt Q8TEX9)	-0.201	-0.294
INTS9_Q9NV88_5+14_LYCLSGHPTLPCNVLK (UniProt Q9NV88)	0.035	-0.0263
IRF2BP2_Q7Z5L9_40_GCVNYEGADRVEFVIETAR (UniProt Q7Z5L9)	0.123	-0.0852
ITGB1_P05556_636_FQGQTCEMCQTCLGVCAEHK (UniProt P05556)	-0.0931	-0.0965
ITPK1_Q13572_391_LGCNAGVSPSFQQHCVASLATK (UniProt Q13572)	0.0517	-0.193
ITGA5_P08648_921_CELGPLHQQESQSLQLHFR (UniProt P08648)	-0.263	-0.00646
ITGB1_P05556_64_CDDLEALKK (UniProt P05556)	-0.158	-0.268
